Results are given in words; binding and its absence hold for the method and conditions named. Binding seen in cells or lysates may run through a third protein. These calls come from enrichment with a bait or labelling near it, and not all partners need be listed.
B1: HES1 (protein, UniProt P35428 1-282)
chain: MPADIMEKNSSSPVAATPASVNTTPDKPKTASEHRKSSKPIMEKRRRARINESLSQLKTLILDALKKDSSRHSKLEKADILEMTVKHLRNLQRAQMTAALSTDPSVLGKYRAGFSECMNEVTRFLSTCEGVNTEVRTRLLGHLANCMTQINAMTYPGQAHPALQAPPPPPPSGPAGPQHAPFAPPPPPLVPIPGGAAPPPGSAPCKLGSQAGEAAKVFGGFQVVPAPDGQFAFLIPNGAFAHSGPVIPVYTSNSGTSVGPNAVSPSSGSSLTSDSMWRPWRN

Amino acid sequences for entries named in this document (tags omitted).
UniProt O35185: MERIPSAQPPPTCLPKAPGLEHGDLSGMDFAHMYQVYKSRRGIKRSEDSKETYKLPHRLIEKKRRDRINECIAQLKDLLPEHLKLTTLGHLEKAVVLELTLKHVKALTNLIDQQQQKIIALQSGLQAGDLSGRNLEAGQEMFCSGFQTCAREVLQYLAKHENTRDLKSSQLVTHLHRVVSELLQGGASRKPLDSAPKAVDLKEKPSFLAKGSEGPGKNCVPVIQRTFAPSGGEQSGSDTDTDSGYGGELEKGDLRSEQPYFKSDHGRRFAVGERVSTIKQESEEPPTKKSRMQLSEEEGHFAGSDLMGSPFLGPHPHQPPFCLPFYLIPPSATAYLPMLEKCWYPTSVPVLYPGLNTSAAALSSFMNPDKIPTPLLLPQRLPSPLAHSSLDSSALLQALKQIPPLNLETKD
UniProt P15307: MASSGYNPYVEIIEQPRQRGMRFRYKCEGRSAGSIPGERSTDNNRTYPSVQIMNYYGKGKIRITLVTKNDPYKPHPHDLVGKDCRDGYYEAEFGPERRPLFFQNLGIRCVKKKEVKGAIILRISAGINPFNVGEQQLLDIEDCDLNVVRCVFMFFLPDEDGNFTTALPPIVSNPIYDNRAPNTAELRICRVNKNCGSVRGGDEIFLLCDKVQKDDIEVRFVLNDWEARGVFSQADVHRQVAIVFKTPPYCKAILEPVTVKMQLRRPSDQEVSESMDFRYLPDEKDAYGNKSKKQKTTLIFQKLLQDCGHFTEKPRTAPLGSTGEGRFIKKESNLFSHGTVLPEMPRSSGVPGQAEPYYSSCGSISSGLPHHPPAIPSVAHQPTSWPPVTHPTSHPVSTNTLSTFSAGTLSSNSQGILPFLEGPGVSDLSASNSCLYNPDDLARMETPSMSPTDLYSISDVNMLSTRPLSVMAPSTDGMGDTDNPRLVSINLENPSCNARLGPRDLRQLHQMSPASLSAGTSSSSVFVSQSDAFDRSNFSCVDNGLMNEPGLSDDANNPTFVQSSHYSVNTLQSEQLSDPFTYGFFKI
UniProt O35253: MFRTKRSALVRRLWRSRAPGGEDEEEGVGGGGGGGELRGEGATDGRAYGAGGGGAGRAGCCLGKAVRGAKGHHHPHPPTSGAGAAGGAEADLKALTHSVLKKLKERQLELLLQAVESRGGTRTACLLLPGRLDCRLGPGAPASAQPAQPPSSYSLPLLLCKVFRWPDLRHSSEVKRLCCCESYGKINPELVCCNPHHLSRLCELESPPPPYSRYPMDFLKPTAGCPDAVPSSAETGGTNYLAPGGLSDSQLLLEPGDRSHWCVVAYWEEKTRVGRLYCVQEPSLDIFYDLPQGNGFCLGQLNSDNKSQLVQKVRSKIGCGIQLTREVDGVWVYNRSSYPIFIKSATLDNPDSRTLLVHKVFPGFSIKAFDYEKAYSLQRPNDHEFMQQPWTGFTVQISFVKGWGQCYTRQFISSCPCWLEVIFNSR

Target: Microtubule-actin cross-linking factor 1 (MACF1) (mouse (endogenous in MC3T3-E1 and in mouse MSCs)) (UniProt Q9QXZ0)
Experiment: affinity purification with mass spectrometry

| binding | Molecule |
| --- | --- |
| binds | BHLHE40 (from UniProt O35185 1-411) |
| binds | REL (from UniProt P15307 1-587) |
| binds | SMAD7 (from UniProt O35253 1-426) |
| binds | B1 |

From paper doi:10.1101/743930
